In article PMC3541164, “Cytotoxic and potent CYP1 inhibitors from the marine algae Cymopolia barbata” (Organic and Medicinal Chemistry Letters, 2012):

Test system: HepG2 cells
Test: MTS cell viability assay, liver cancer cells
Assay type: cell-based
Details: Homo sapiens, 24 h exposure, read-out: IC50 cell viability HepG
Protocol: Cell lines (CCD18 Co, HepG2 and MCF-7) were maintained in ATCC-formulated Eagle’s Minimum Essential Medium and HT29 was maintained in McCoy’s 5a Modified Medium supplemented with 10% fotal bovine serum (Atlas; Fort Collins, CO, USA), 10 mM HEPES solution, 100 mM L-glutamine penicillin streptomycin solution, 3 g/L glucose, and 1.5 g/L of sodium bicarbonate. Cells were maintained at 37°C with 5% CO2 in Corning 75 cm^2 culture flasks. Cells were exposed to a given isolate or known anticancer agent for 24 h. Following the appropriate treatments, cell viability was evaluated using an MTS assay according to the manufacturer’s instructions. All assays were performed at least three times and were monitored spectrophotometrically at 590 nm. Cell viability was recorded as percentage relative to vehicle solvent-treated control.

- IC50: 18.6 ± 0.58 µM
SMILES: COc1cccc2c1C(=O)c1c(O)c3c(c(O)c1C2=O)C[C@@](O)(C(=O)CO)C[C@@H]3O[C@H]1C[C@H](N)[C@H](O)[C@H](C)O1 [Doxorubicin, doxorubicin, reference compound]
